{"source": "patent US12024715B2", "about": "“Compositions and methods for improved T cells” (Temple University-Of The Commonwealth System of Higher …, priority 2017, dated 2024)", "test_system": "Ezh2", "experiment": "RNAseq analysis of activated Ezh2−/− versus WT CD8 T cells (anti-CD3/CD28 Abs and IL-2, 3 days)", "format": "cell-based, mouse"}
{"substance": "Ccl4", "values": [{"measurement": "Activated Ezh2−/− CD8", "setting": "RNAseq expression value of the listed gene in activated Ezh2−/− CD8 T cells", "result": 619.718}, {"measurement": "Activated WT CD8", "setting": "RNAseq expression value of the listed gene in activated WT CD8 T cells", "result": 258.104}, {"measurement": "fold change", "setting": "gene expression, activated Ezh2−/− CD8 T cells versus WT CD8 T cells", "result": 2.401}]}
